Source: article PMC8789930
Results are given in words; binding and its absence hold for the method and conditions named. In cells and extracts the contact can be indirect. These calls come from enrichment with a bait or labelling near it, and not all partners need be listed. Where a sequence is shown, tags or fusion partners need not be part of it.

Chains of the proteins cited; added tags and fusions are not shown.
UniProt P13010: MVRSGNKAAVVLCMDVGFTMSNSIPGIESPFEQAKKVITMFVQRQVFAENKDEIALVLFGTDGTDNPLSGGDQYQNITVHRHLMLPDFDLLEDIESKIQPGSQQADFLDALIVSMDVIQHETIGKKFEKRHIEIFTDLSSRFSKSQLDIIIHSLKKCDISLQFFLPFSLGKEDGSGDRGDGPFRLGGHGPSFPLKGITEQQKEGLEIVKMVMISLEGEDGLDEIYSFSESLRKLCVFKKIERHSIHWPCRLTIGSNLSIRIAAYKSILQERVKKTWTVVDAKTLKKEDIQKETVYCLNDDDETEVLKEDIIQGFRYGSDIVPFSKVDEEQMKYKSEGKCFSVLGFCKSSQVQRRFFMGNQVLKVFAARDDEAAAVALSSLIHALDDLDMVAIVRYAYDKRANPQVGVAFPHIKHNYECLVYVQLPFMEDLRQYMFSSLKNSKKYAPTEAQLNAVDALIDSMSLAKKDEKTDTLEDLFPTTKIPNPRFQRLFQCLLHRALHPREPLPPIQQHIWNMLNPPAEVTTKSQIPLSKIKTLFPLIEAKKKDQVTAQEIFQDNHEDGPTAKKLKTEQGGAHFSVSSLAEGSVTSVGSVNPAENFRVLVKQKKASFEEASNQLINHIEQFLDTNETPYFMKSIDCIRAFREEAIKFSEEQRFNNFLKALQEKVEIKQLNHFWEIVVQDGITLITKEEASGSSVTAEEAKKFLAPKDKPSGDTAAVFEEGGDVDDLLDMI
UniProt Q14258: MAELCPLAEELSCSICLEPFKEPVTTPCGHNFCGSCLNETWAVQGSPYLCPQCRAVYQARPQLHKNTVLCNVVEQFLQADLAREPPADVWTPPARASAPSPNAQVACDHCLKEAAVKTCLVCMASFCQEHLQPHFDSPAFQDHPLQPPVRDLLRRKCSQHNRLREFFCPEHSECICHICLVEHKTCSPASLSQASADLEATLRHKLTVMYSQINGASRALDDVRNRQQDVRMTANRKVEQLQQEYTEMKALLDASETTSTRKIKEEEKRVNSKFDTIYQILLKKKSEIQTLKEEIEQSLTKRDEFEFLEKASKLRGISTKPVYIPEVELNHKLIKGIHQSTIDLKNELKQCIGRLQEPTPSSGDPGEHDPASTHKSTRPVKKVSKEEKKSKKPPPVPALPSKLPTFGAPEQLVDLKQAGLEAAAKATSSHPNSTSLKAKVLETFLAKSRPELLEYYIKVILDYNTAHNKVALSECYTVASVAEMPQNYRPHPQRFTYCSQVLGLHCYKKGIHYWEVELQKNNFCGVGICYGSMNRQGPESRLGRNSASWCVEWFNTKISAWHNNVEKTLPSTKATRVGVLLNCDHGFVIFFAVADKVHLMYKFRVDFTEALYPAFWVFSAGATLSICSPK

Target: T1, HA-USP44 (UniProt Q9H0E7)
T1 sequence: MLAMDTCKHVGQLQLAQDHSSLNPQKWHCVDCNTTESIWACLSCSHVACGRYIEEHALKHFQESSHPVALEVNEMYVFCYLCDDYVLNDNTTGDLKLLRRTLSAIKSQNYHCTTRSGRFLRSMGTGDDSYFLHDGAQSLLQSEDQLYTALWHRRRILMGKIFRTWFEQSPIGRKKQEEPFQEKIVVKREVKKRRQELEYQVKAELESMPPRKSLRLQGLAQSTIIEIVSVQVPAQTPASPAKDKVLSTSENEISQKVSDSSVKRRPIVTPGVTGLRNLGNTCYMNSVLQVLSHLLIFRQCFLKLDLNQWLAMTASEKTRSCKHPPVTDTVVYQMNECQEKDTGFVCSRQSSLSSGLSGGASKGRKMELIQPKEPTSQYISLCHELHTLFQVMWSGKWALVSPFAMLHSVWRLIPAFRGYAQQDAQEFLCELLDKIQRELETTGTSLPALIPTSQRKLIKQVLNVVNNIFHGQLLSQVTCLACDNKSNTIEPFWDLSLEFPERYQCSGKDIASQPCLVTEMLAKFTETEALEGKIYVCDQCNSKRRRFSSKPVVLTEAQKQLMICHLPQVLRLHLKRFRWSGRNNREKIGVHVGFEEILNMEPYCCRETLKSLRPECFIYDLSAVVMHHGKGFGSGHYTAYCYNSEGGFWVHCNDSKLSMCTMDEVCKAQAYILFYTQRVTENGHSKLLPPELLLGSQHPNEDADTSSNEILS
Assay: affinity purification with mass spectrometry; anti-HA immunoprecipitate from SUNE1 cells stably overexpressing HA-USP44; SDS-PAGE, Coomassie blue, mass spectrometry

| binding | Substance |
| --- | --- |
| binds | Ku80 (endogenous) (from UniProt P13010 1-732) |
| binds | TRIM25 (endogenous) (from UniProt Q14258 1-630) |
